Data: article doi:10.1101/2023.06.14.544957
These are yes or no findings as the source states them, for the method shown. In cells and extracts the contact can be indirect. Some binding calls cover weakened binding; strength is not graded here. Sequences can lack the tags named with a protein.

Chains of the proteins cited; added tags and fusions are not shown. Lines headed by an entry give the natural chain unless they say otherwise; changes in a name come on top.
UniProt P22227, whole entry: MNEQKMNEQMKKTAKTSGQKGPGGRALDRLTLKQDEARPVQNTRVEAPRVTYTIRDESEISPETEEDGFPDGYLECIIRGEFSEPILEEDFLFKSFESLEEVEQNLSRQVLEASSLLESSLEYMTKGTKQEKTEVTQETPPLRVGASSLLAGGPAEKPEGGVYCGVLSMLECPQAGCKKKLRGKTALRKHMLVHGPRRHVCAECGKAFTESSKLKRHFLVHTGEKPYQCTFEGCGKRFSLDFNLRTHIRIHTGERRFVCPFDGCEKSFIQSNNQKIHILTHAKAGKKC

Tests used:
Assay in all cases: co-IP
[1] = target: T1, HA-tagged mouse RNF12 Δ1-206 (ΔN) (mouse) (UniProt Q9WTV7)
T1 sequence: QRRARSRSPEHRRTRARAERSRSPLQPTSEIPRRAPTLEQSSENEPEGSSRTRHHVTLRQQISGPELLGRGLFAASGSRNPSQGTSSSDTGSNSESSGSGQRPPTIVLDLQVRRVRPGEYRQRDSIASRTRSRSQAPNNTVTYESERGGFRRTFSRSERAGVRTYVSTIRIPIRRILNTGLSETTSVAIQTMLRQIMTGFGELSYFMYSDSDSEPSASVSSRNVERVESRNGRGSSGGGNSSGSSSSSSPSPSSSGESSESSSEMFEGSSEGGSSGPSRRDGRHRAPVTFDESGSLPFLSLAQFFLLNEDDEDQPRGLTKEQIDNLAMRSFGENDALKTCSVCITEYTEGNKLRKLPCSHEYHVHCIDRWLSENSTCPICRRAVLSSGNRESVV

[2] = target: T2, HA-tagged mouse RNF12 ΔBR2 (lacking amino acids 348-381) (mouse) (UniProt Q9WTV7)
T2 sequence: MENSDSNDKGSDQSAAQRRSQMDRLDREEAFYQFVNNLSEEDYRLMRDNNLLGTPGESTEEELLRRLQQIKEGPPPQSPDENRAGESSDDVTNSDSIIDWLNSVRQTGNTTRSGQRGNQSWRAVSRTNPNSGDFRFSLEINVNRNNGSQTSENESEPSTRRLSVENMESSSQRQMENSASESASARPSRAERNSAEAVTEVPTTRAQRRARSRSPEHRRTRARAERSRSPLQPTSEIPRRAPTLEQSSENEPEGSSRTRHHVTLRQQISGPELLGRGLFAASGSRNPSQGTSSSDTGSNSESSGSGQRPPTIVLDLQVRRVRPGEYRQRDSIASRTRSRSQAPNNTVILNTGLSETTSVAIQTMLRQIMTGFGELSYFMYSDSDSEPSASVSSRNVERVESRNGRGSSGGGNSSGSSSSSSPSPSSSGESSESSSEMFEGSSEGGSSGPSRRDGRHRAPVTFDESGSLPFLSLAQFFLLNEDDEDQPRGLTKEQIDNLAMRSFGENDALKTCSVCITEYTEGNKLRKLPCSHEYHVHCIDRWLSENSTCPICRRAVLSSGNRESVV

[3] = target: T3, HA-tagged mouse RNF12 WT (1-600) (mouse) (UniProt Q9WTV7)
T3 sequence: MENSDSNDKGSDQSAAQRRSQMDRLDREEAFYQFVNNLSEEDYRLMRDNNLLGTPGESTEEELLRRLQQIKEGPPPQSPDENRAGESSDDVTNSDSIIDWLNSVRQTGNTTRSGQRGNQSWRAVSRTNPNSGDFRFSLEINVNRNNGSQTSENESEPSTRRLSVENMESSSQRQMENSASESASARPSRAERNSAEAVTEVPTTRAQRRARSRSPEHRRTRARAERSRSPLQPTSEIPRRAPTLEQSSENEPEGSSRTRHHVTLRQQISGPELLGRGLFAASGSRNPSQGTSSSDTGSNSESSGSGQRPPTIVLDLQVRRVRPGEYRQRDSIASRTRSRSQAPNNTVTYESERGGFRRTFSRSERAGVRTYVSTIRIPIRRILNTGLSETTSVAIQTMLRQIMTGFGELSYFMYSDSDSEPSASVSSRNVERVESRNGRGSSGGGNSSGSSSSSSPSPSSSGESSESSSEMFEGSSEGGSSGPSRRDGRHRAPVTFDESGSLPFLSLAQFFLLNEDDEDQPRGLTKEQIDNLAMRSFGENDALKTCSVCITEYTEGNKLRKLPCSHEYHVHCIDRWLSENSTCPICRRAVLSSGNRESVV

Measured: binding

FLAG-REX1 (from UniProt P22227 1-288)
binds: [1] | [2] | [3]
